We go through 29 molecules from PubChem BioAssay AID330 (DTP/NCI, 2004).

This assay deals with P388 leukemia ip, CD2F1 mice, survival T/C. Kind of assay: NCI In Vivo Anticancer Drug Screen. Data for tumor model P388 Leukemia (intraperitoneal) in CD2F1 (CDF1) mice. Particulars: T/C endpoint: median survival time, higher T/C = longer survival.
[1] abbreviates: dose: 100.0 mg/kg/injection, schedule: Q01DX009 (ip), vehicle: saline with Tween-80.
[2] abbreviates: dose: 200.0 mg/kg/injection, schedule: Q01DX009 (ip), vehicle: saline with Tween-80.
Setting [3] is: dose: 200.0 mg/kg/injection, schedule: Q01DX009 (ip), vehicle: saline.
The mark [4] stands for this setting: dose: 100.0 mg/kg/injection, schedule: Q01DX005 (ip), vehicle: Klucel (hydroxypropylcellulose) (HPC).
The mark [5] stands for this setting: dose: 200.0 mg/kg/injection, schedule: Q01DX005 (ip), vehicle: Klucel (hydroxypropylcellulose) (HPC).
Setting [6] is: dose: 100.0 mg/kg/injection, schedule: Q01DX009 (ip), vehicle: saline.
Setting [7] is: dose: 50.0 mg/kg/injection, schedule: Q01DX009 (ip), vehicle: saline.
Where [8] appears, read: dose: 50.0 mg/kg/injection, schedule: Q01DX009 (ip), vehicle: saline with Tween-80.

The list does not hold the whole screen: it gathers tests that were run many times, whatever their T/C, doses with no T/C, and many T/C values between a quarter and a half above the control. Further doses and runs are listed elsewhere. T/C gives the treated animals as a percentage of the vehicle group. Some doses have a count of surviving animals in place of a T/C: the source files T/C as zero there, which appears to mark a toxic dose or a test without result, not a measured value. Some survivor counts are full or nearly so, which does not show that the dose was tolerated: survival well below the control is almost never listed, so the zero probably covers shortened survival too. Survivors were counted at the toxicity check, usually on the fifth day, unless a day is given; later deaths do not show. Schedule codes are those of the source, taken here to give the interval after Q, in days (D) or hours (H), and the number of doses after X. Where survival is the endpoint, this PubChem deposit counts one and a half times the control or more as active, and values a quarter to a half above the control carry no call in these data; other NCI protocols may use other cut-offs. Some T/C values carry the count of animals alive at the toxicity check (mostly the fifth day); without a count, all were alive then. Some entries hold several experiments; their values stand side by side, smallest first.

For the molecule `CC1CCCC(C2CC3CCCCC3C(N)[N-]2)[N-]1.CC1CCCC(C2CC3CCCCC3C(N)[N-]2)[N-]1.O=[N+]([O-])O.[Cu+]` (centres undefined), the survivor count (dose: 400.0 mg/kg/injection, schedule: Q04DX002 (ip), vehicle: suspension in saline) was 1 of 6.

Turning to `CCN(CC)CCCC(C)Nc1cc(C)c2nc(C)cc(C)c2c1C` (centres undefined), the survivor count is 4 of 6 under setting [1] and 2 of 6 under setting [2].

On to `CN(C(=O)c1cc2c(cc1Br)OCO2)c1ccccc1`, for which the survivor count reads like this: (dose: 200.0 mg/kg/injection, schedule: Q01DX009 (ip), vehicle: other) 2 of 6; (dose: 400.0 mg/kg/injection, schedule: Q01DX009 (ip), vehicle: other) 0 of 6.

On to `C=CCCCCCCCCCCCCCC1=NCC[N+]1(CCO)CC(O)COc1cc(Cl)c(Cl)c(Cl)c1` (centres undefined), for which the survivor count under setting [3] is 2 of 6.

For `CC12COC(=O)CC1CCC1C2CCC2(C)C1CCC2(C)O` (centres undefined), the survivor count (dose: 400.0 mg/kg/injection, schedule: Q04DX003 (ip), vehicle: saline with Tween-80) was 0 of 6.

Regarding `CNCCCc1cc(-c2ccc([N+](=O)[O-])cc2)n[nH]1`, for the setting “dose: 400.0 mg/kg/injection, schedule: Q04DX002 (ip), vehicle: Klucel (hydroxypropylcellulose) (HPC)”, the survivor count is recorded as 2 of 6.

In the case of `Cc1nc(N)nc(N)c1CCCc1ccccc1`, the survivor count by setting is: (dose: 25.0 mg/kg/injection, schedule: Q01DX001 (ip), vehicle: saline) 0 of 6; (dose: 50.0 mg/kg/injection, schedule: Q01DX001 (ip), vehicle: saline) 0 of 6.

On to `COCC1(CCC(C)=C(C)C)Nc2ccc(C(=O)O)cc2CC1Cl` (centres undefined), for which the survivor count runs as follows: (dose: 5.0 mg/kg/injection, schedule: Q01DX005 (ip), vehicle: Klucel (hydroxypropylcellulose) (HPC)) 6 of 6; (dose: 10.0 mg/kg/injection, schedule: Q01DX005 (ip), vehicle: Klucel (hydroxypropylcellulose) (HPC)) 3 of 6.

In the case of `CC1=C2C(=C[C@@](C)(CO)[C@@H]2O)C(=O)[C@](C)(O)C12CC2`, the T/C (dose: 0.2 mg/kg/injection, schedule: Q01DX010 (ip), vehicle: saline, evaluated on day 30) was 127 % of control and the T/C (dose: 0.2 mg/kg/injection, schedule: Q01DX010 (ip), vehicle: saline, run until all animals had died) was 135 % of control. Further, the survivor count is on record as 4 of 6 (dose: 0.4 mg/kg/injection, schedule: Q01DX010 (ip), vehicle: saline) and 3 of 6 (dose: 1.6 mg/kg/injection, schedule: Q01DX010 (ip), vehicle: saline).

Regarding `CCCCCCCCCCCCCCCCCCCC`, the survivor count (dose: 25.0 mg/kg/injection, schedule: Q04DX003 (ip), vehicle: other) is listed as 6 of 6.

Turning to `CC1(C)C=C(O)C(=O)C(O)=C1`, the survivor count is 0 of 6 under setting [4] and 0 of 6 under setting [5].

For `FC(F)(F)c1cccc(C2CNCCO2)c1` (centres undefined), the survivor count reads like this: under setting [6], 4 of 6; under setting [3], 1 of 6.

`CN(N=O)C(=O)Nc1ccc(C(=O)O)cc1`: the survivor count runs as follows: under setting [1], 6 of 6; (dose: 150.0 mg/kg/injection, schedule: Q04DX003 (ip), vehicle: saline with Tween-80) 5 of 6.

As for `CC(=O)OCC12C=CC(O1)C1C(=O)OC(=O)C12` (centres undefined), the survivor count (dose: 200.0 mg/kg/injection, schedule: Q01DX005 (ip), vehicle: saline with Tween-80) was 5 of 5.

Consider `CCCCCCCCCCCCCCCCCCCCCCCCC(O)C(=O)O` (centres undefined) (tested in a mixture with another compound), for which the survivor count (dose: 100.0 mg/kg/injection, schedule: Q01DX005 (ip), vehicle: saline with Tween-80) was 6 of 6.

In the case of `C/C(=N\NC(=O)c1ccccc1O)c1cccc(/C(C)=N/NC(=O)c2ccccc2O)n1`, the T/C was 134 % of control (dose: 6.25 mg/kg/injection, schedule: Q01DX009 (ip), vehicle: saline); 125 and 127 % of control [5 of 6 alive] (dose: 12.5 mg/kg/injection, schedule: Q01DX009 (ip), vehicle: saline); 129 and 132 % of control (dose: 25.0 mg/kg/injection, schedule: Q01DX009 (ip), vehicle: saline). Also, the survivor count was 6 of 6 under setting [7], 6 of 6 under setting [6] and 5 of 6 under setting [3].

In the case of `CSC1CC(C)(O)Cc2cc3c(c(O)c21)C(=O)c1c(O)cc2c(c1C3=O)OC1OC2(C)C(O)C(N(C)C)C1O` (centres undefined), the T/C was 131 % of control (dose: 2.0 mg/kg/injection, schedule: Q01DX009 (ip), vehicle: other); 129 % of control (dose: 4.0 mg/kg/injection, schedule: Q01DX009 (ip), vehicle: other); 137 % of control (dose: 8.0 mg/kg/injection, schedule: Q01DX009 (ip), vehicle: other). Further, the survivor count (dose: 32.0 mg/kg/injection, schedule: Q01DX009 (ip), vehicle: other) is 1 of 6.

As to `CC(=O)/C(C(=N)c1nc(C)c(C(C)=O)c(C(N)=O)n1)=C(\C)O`, the survivor count under setting [5] was 6 of 6.

In the case of `CNC(=O)OCc1c(COC(=O)NC)c(-c2ccc(Sc3ccccc3)cc2)n(C)c1C`, the T/C by setting is: (dose: 12.5 mg/kg/injection, schedule: Q01DX009 (ip), vehicle: distilled water + Tween-80) 142 % of control; (dose: 25.0 mg/kg/injection, schedule: Q01DX009 (ip), vehicle: distilled water + Tween-80) 146 % of control. Also, the survivor count (dose: 200.0 mg/kg/injection, schedule: Q01DX009 (ip), vehicle: distilled water + Tween-80) was 6 of 6.

Consider `COc1ccc(C(CC(=O)NCCCl)CC(=O)NCCCl)cc1`, for which, where the note is “dose: 400.0 mg/kg/injection, schedule: Q01DX001 (ip), vehicle: suspension in saline”, the survivor count is recorded as 0 of 6.

Take `CC1(c2ccccc2)Nc2ccccc2N(C(=O)c2ccccc2)C1c1ccccc1` (centres undefined): the survivor count (dose: 240.0 mg/kg/injection, schedule: Q01DX005 (ip), vehicle: Klucel (hydroxypropylcellulose) (HPC)) is 6 of 6.

With `NC(CO)(CO)CO`, for the setting “dose: 3200.0 mg/kg/injection, schedule: Q01DX007 (ip), vehicle: saline”, the survivor count was 0 of 5.

On to `CC(NNC(=S)N1CCCCCC1)c1ccccn1` (centres undefined), for which the survivor count by setting is: under setting [4], 4 of 6; under setting [5], 0 of 6.

For the molecule `CC1(C)O[C@@H]2C[C@H]3[C@@H]4CCC5=CC(=O)CC[C@]5(C)[C@@]4(F)[C@@H](O)C[C@]3(C)[C@]2(C(=O)CO)O1`, under setting [8], the survivor count is listed as 6 of 6.

For the molecule `O=C(O)c1ccccc1-c1nc2ccccc2[nH]1`, the survivor count (dose: 200.0 mg/kg/injection, schedule: Q01DX001 (ip), vehicle: saline with Tween-80) is 1 of 6 and the survivor count (dose: 400.0 mg/kg/injection, schedule: Q01DX001 (ip), vehicle: saline with Tween-80) was 0 of 6.

Take `C=C1C(=O)OC2C1C(OC(=O)/C(C)=C/C)CC1(CO1)C1C(O)C3OC3(C)C21O` (centres undefined): the survivor count (dose: 100.0 mg/kg/injection, schedule: Q04DX002 (ip), vehicle: saline with Tween-80) is given as 4 of 6 and the survivor count (dose: 200.0 mg/kg/injection, schedule: Q04DX002 (ip), vehicle: saline with Tween-80) is recorded as 1 of 6.

For the molecule `Cc1nnc(NS(=O)(=O)c2ccc(N=Nc3cc(N=Nc4ccc(S(=O)(=O)Nc5nnc(C)s5)cc4)c4c(NC(=O)C(Cl)Cl)cccc4c3OC(=O)C(Cl)Cl)cc2)s1` (tested in a mixture with another compound), the T/C is 129 % of control (dose: 12.5 mg/kg/injection, schedule: Q01DX009 (ip), vehicle: saline with Tween-80); 132 % of control (dose: 25.0 mg/kg/injection, schedule: Q01DX009 (ip), vehicle: Klucel (hydroxypropylcellulose) (HPC)); 138 % of control (dose: 25.0 mg/kg/injection, schedule: Q01DX009 (ip), vehicle: saline with Tween-80). Also, the survivor count is 6 of 6 under setting [8], 4 of 6 under setting [1] and 3 of 6 under setting [2].

For `CCOc1cccs1`, under “dose: 240.0 mg/kg/injection, schedule: Q01DX005 (ip), vehicle: saline with Tween-80”, the survivor count is on record as 2 of 6.

For the molecule `CCCCCCCCCCCCCC[N+]1(CC)CCOCC1`, the survivor count under setting [7] is 2 of 6, the survivor count under setting [6] is given as 0 of 6 and the survivor count under setting [3] is 0 of 6.
